Experimental data as given in paper PMC7947682.
Results are given in words; binding and its absence hold for the method and conditions named. In cells and extracts the contact can be indirect. Here binding means that the protein was enriched with, or labelled near, the bait; the list need not be complete.

The chains behind the UniProt entries cited, without tags or fusion partners.
UniProt P78527: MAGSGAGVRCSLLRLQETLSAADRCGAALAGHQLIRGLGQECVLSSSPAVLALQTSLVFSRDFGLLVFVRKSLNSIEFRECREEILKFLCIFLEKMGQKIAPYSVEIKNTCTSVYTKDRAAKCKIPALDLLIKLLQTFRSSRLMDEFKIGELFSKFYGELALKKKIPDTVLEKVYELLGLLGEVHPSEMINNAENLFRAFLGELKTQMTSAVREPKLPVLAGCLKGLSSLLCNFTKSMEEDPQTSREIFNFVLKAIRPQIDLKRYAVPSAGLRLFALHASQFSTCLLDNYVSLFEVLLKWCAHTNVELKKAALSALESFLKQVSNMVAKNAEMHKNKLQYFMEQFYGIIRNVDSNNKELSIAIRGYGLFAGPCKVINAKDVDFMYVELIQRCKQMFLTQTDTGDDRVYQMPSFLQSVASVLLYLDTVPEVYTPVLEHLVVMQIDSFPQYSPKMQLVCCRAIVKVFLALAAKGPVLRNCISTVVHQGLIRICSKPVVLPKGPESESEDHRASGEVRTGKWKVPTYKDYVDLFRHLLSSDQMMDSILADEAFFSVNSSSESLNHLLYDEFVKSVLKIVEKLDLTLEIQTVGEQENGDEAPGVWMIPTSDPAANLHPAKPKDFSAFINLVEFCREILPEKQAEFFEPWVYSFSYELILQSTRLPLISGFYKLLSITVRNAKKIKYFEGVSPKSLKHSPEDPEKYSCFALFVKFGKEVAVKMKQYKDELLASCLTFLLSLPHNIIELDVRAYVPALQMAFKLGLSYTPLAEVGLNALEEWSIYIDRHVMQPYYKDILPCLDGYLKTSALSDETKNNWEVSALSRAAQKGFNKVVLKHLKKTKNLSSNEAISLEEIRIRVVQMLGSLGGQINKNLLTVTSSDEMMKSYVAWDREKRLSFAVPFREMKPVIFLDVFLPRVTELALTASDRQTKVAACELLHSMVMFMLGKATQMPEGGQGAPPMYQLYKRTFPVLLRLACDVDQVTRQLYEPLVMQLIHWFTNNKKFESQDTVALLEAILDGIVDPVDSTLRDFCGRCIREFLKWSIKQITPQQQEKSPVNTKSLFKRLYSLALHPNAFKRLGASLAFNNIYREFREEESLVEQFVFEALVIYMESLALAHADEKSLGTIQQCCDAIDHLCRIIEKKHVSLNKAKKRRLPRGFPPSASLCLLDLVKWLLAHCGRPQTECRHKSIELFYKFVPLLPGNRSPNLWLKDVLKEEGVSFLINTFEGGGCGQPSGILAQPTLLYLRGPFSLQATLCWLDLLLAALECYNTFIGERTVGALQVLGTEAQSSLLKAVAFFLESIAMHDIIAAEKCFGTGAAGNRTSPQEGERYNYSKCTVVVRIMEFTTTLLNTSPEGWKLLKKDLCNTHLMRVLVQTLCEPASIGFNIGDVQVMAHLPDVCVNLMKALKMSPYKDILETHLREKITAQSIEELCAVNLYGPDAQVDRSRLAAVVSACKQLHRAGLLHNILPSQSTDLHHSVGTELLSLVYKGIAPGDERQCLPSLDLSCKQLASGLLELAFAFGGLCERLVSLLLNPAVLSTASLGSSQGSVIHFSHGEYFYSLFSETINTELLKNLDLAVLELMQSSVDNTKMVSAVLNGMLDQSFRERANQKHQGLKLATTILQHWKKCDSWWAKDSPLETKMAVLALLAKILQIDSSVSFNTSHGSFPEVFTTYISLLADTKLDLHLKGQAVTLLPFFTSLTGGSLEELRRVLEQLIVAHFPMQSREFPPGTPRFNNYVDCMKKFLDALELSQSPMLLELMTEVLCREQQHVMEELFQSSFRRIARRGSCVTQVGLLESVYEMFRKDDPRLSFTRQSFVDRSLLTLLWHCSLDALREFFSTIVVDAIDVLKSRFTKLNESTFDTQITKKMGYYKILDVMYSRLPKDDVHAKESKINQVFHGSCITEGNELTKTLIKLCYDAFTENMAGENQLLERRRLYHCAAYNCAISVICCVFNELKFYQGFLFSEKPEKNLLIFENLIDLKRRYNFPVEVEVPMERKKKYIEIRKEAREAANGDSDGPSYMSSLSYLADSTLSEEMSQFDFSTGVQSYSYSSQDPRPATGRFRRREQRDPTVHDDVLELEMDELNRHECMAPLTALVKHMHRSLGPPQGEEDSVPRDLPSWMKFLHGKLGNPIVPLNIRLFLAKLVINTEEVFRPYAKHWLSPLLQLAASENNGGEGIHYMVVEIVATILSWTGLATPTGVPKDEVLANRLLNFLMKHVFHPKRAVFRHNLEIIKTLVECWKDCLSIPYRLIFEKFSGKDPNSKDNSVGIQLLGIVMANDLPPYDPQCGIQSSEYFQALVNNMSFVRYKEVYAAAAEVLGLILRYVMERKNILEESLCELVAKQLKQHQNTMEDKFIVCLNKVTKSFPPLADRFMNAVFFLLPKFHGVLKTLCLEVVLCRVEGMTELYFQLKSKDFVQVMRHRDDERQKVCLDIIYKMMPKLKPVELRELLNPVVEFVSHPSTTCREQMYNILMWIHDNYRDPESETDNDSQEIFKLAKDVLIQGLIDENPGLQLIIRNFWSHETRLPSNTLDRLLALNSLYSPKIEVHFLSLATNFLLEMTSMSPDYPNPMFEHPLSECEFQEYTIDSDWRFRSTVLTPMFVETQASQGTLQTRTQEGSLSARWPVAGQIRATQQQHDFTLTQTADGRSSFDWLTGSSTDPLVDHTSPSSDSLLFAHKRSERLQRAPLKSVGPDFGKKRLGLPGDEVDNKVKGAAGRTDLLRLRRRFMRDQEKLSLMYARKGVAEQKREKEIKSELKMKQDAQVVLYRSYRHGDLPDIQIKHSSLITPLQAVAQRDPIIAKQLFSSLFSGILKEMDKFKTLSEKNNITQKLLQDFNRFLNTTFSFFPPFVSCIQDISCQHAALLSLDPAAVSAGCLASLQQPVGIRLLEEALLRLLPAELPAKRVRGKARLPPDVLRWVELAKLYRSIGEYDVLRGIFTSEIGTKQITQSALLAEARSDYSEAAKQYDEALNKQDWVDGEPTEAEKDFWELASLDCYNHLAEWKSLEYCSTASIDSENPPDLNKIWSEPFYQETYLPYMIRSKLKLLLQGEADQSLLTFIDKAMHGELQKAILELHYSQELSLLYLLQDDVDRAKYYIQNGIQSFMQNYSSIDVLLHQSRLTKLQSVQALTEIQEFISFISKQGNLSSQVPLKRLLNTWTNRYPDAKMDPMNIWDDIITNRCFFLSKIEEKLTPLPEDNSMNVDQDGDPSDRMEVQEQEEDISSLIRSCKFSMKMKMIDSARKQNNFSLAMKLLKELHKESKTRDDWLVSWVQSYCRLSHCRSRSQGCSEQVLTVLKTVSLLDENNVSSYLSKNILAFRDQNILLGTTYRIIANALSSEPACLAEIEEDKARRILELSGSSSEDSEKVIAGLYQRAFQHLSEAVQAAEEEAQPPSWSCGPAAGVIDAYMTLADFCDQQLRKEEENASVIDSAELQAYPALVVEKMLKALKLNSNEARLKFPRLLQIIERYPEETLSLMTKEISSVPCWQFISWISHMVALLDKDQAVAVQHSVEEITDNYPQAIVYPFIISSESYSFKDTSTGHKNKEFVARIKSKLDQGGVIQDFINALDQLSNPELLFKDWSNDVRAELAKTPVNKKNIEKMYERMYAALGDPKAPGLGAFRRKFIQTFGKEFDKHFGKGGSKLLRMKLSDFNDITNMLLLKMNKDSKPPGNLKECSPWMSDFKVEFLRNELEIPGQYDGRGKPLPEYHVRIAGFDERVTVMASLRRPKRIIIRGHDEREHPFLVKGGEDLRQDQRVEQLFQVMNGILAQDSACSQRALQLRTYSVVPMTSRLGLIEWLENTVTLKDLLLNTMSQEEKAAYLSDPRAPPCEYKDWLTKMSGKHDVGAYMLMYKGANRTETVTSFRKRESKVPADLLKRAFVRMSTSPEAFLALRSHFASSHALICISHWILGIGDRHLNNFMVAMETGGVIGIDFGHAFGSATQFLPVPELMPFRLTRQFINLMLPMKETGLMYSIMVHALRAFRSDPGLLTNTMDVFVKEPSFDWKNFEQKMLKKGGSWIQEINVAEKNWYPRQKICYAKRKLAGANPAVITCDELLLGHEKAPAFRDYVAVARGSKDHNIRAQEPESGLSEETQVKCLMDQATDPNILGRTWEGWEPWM
UniProt O75190: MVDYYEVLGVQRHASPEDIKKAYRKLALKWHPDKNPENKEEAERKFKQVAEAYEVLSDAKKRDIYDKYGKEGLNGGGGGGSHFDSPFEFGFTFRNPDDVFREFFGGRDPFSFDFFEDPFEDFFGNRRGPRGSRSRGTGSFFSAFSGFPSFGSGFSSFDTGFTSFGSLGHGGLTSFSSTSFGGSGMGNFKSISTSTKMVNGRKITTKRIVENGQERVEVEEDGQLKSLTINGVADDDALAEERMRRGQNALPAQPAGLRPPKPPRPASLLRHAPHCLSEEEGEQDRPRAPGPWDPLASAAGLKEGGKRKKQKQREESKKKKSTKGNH
UniProt Q13547: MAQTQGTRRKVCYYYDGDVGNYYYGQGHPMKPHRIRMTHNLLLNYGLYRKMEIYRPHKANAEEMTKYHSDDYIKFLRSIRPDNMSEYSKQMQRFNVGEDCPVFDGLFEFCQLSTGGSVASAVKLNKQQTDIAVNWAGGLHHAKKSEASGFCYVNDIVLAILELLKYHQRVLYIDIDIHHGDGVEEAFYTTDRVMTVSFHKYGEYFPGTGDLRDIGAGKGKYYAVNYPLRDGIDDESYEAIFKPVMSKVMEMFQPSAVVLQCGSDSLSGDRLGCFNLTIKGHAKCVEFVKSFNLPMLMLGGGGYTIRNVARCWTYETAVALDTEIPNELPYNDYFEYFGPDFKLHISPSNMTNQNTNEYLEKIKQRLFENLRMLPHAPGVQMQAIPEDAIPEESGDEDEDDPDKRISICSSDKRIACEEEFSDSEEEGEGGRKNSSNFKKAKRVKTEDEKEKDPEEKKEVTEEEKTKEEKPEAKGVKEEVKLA
UniProt O43347: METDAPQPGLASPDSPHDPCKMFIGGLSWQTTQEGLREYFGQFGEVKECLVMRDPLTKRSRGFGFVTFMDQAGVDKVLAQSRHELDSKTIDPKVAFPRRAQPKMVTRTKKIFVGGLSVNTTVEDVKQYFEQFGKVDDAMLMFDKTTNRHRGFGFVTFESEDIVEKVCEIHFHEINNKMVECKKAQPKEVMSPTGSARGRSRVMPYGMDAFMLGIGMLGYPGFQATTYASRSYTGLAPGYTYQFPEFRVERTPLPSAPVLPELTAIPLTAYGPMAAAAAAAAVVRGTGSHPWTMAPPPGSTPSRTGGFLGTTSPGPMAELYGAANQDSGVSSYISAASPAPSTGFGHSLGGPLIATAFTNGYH
UniProt O60610: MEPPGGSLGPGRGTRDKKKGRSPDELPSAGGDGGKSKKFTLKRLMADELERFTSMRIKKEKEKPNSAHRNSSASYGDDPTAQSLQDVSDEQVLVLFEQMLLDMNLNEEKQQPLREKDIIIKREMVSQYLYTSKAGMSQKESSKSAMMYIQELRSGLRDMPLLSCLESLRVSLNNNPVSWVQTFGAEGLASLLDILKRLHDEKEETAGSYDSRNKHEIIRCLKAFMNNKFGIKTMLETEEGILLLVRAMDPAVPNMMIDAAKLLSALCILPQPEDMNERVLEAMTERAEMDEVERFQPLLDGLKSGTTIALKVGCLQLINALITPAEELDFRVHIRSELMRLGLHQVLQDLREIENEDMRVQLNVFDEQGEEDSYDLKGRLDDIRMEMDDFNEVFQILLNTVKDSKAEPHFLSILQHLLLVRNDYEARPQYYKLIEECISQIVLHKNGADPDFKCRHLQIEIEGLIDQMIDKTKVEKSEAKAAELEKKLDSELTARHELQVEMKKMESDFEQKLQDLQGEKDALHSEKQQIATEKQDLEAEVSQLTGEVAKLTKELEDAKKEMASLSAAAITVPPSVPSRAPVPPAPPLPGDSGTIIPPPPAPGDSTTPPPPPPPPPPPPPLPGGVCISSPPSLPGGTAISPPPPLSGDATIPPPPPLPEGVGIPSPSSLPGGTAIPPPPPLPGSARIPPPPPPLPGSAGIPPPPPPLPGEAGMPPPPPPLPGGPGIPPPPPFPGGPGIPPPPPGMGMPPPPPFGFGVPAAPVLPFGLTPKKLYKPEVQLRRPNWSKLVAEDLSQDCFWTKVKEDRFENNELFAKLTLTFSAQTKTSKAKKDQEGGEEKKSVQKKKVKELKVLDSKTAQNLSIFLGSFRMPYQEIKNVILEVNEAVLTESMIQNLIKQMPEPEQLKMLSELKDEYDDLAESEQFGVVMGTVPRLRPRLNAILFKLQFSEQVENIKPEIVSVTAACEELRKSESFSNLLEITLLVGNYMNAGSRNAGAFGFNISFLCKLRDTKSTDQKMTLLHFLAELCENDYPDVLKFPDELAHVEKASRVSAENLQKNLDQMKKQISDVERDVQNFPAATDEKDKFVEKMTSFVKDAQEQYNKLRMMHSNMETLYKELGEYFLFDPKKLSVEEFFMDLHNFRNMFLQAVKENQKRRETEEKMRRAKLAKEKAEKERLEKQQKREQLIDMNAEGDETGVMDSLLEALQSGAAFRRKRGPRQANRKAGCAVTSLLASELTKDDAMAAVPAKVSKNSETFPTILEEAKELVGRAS

Target: T1, Avi-FOXA2 (UniProt Q9Y261)
T1 sequence (chain, biotin on the Avi tag (biotin tagging system with co-expressed E. coli BirA)): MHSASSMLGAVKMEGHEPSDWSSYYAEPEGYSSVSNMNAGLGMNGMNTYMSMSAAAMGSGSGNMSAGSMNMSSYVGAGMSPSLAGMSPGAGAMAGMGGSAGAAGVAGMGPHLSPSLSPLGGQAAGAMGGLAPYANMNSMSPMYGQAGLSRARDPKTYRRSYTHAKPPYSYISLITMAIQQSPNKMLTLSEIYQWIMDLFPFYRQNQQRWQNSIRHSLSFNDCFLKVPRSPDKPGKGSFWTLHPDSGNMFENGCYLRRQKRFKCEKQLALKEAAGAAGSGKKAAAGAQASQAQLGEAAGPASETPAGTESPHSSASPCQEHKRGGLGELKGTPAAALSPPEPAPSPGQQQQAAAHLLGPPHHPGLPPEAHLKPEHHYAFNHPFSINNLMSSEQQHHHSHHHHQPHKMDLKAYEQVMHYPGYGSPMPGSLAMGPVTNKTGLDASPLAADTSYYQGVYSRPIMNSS
Assay: affinity purification with mass spectrometry; MCF-7 cells transfected with pAvi-FOXA2 and pEF1-BirA; lysate (150 mM NaCl, 1% NP-40, 50 mM Tris-HCl pH 7.4) on streptavidin resin overnight, washed four times; SDS-PAGE, trypsin digest, LTQ Orbitrap Velos

DNA-dependent protein kinase catalytic subunit (from UniProt P78527 1-4128)
binding: binds

E3 ubiquitin-protein ligase KCMF1 (from UniProt Q9P0J7 1-381)
binding: binds

Acetyl-CoA carboxylase 2 (human (endogenous in MCF-7))
binding: binds

Protein PRRC2B (from UniProt Q5JSZ5 1-2229)
binding: binds

Trinucleotide repeat-containing gene 6B protein (Fragment) (from UniProt Q9UPQ9 1-1833)
binding: binds

DnaJ homolog subfamily B member 6 (Fragment) (from UniProt O75190 1-326)
binding: binds

Isoform 5 of Nuclear receptor coactivator 3 (from UniProt Q9Y6Q9-5 1-1420)
binding: binds

Histone deacetylase 1 (from UniProt Q13547 1-482)
binding: binds

RNA-binding protein Musashi homolog 1 (from UniProt O43347 1-362)
binding: binds

Protein diaphanous homolog 1 (from UniProt O60610 1-1272)
binding: binds

Clathrin interactor 1 (from UniProt Q14677 1-625)
binding: binds

B1: Eukaryotic translation initiation factor 4E transporter (protein, UniProt Q9NRA8 1-985)
chain: MDRRSMGETESGDAFLDLKKPPASKCPHRYTKEELLDIKELPHSKQRPSCLSEKYDSDGVWDPEKWHASLYPASGRSSPVESLKKELDTDRPSLVRRIVDPRERVKEDDLDVVLSPQRRSFGGGCHVTAAVSSRRSGSPLEKDSDGLRLLGGRRIGSGRIISARTFEKDHRLSDKDLRDLRDRDRERDFKDKRFRREFGDSKRVFGERRRNDSYTEEEPEWFSAGPTSQSETIELTGFDDKILEEDHKGRKRTRRRTASVKEGIVECNGGVAEEDEVEVILAQEPAADQEVPRDAVLPEQSPGDFDFNEFFNLDKVPCLASMIEDVLGEGSVSASRFSRWFSNPSRSGSRSSSLGSTPHEELERLAGLEQAILSPGQNSGNYFAPIPLEDHAENKVDILEMLQKAKVDLKPLLSSLSANKEKLKESSHSGVVLSVEEVEAGLKGLKVDQQVKNSTPFMAEHLEETLSAVTNNRQLKKDGDMTAFNKLVSTMKASGTLPSQPKVSRNLESHLMSPAEIPGQPVPKNILQELLGQPVQRPASSNLLSGLMGSLEPTTSLLGQRAPSPPLSQVFQTRAASADYLRPRIPSPIGFTPGPQQLLGDPFQGMRKPMSPITAQMSQLELQQAALEGLALPHDLAVQAANFYQPGFGKPQVDRTRDGFRNRQQRVTKSPAPVHRGNSSSPAPAASITSMLSPSFTPTSVIRKMYESKEKSKEEPASGKAALGDSKEDTQKASEENLLSSSSVPSADRDSSPTTNSKLSALQRSSCSTPLSQANRYTKEQDYRPKATGRKTPTLASPVPTTPFLRPVHQVPLVPHVPMVRPAHQLHPGLVQRMLAQGVHPQHLPSLLQTGVLPPGMDLSHLQGISGPILGQPFYPLPAASHPLLNPRPGTPLHLAMVQQQLQRSVLHPPGSGSHAAAVSVQTTPQNVPSRSGLPHMHSQLEHRPSQRSSSPVGLAKWFGSDVLQQPLPSMPAKVISVDELEYRQ
binding: binds
